Hit rate of the full screen: of about 200,000 compounds, about 25 (0.01%) were called active. Inconclusive results, whose numbers are uncertain, are shown with a selection of clear calls. Calls come from the whole dose curve; as a rule, active = well fitted inhibition curve with a large enough effect in the signal ratio, with a control signal flat (not every such curve was filed as active); inconclusive = small, poorly fitted or top-dose-only effect, or effect the other way, or a change in a side signal; inactive = flat fitted curve, though single readings scatter; the % refers to the signal ratio. Potencies beside an inconclusive call are fits to weak or partial responses and may not hold up.
Experiment: qHTS Assay for Modulators of Lamin A Splicing
Conditions: HeLa LMNA splicing GFP/RFP minigene ratio, 48 h; ratio change, negative = inhibition: at 46.1 µM (top of the series) unless noted
Outline: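 S3 HeLa stable clones carrying a lamin A-EGFP splicing minigene plus DsRed2 were seeded at 600 cells/well in Opti-MEM with 2% FBS, pin-dosed and incubated 48 h at 37°C. Acumen cytometry (488 nm) gave the GFP/RFP total-intensity ratio.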
% is set by controls: 0 for no effect and ±100 for the full control effect; potency is the fitted concentration of half-maximal effect.

Which ratio change, negative = inhibition does the source give for COc1ccc(NC(=O)ON=C2c3ccccc3-c3ccccc32)cc1 here?
The ratio change, negative = inhibition was inconclusive: 5.53%.

Which ratio change, negative = inhibition does the source give for CCn1c(C(=O)N2CCC(C(=O)NCCCSC3CCCCC3)CC2)cc2sccc21 here?
The ratio change, negative = inhibition was “inactive”.

With CCOc1ccc(C(=O)O)cn1 as the molecule, how does the ratio change, negative = inhibition read?
Its ratio change, negative = inhibition is inconclusive: 37.8% [at 9.22 µM].

For O=c1oc(-c2cccs2)nc2sc3c(c12)CCCC3, which ratio change, negative = inhibition is on record?
Its ratio change, negative = inhibition is inconclusive: 0.945%.

Which ratio change, negative = inhibition does the source give for COc1ccc(N2CCN(S(=O)(=O)CCNC(=O)COc3ccccc3F)CC2)cc1 here?
The ratio change, negative = inhibition was “inactive”.

For CCOC(=O)c1cn(Cc2c(C)c(C)c(C)c(C)c2C)nn1, which ratio change, negative = inhibition is on record?
Its ratio change, negative = inhibition is inconclusive: 3.72%.

For Cc1nc2cnc(N(C)C)nc2n(CCc2ccccc2)c1=O, which Potency is on record?
The Potency was inconclusive: 12.6 µM [inhibitor, partial curve].

Which ratio change, negative = inhibition does the source give for Cc1[nH]nc2c1C(c1ccc(-c3ccccc3C#N)o1)C(C#N)=C(N)O2 (stereo not drawn) here?
Its ratio change, negative = inhibition is “inactive”.

For CCC(C)Nc1oc(-c2ccc(COc3ccc(Cl)cc3)o2)nc1C#N (stereo not drawn), which ratio change, negative = inhibition is on record?
Its ratio change, negative = inhibition is inconclusive: 13.7% [at 46 µM].

Which ratio change, negative = inhibition does the source give for COC(=O)CCC(NC(=O)c1cc(-c2ccc3c(c2)OCCO3)oc1C)C(=O)OC (stereo not drawn) here?
The ratio change, negative = inhibition was “inactive”.

With CCN(CC)CC#CCC1(O)c2ccccc2-c2ccccc21 as the molecule, how does the ratio change, negative = inhibition read?
The ratio change, negative = inhibition was “inactive”.

Which ratio change, negative = inhibition does the source give for Cc1oc(-c2cc(F)cc(F)c2)nc1CN1CCSCC1 here?
Its ratio change, negative = inhibition is “inactive”.

With Cc1cc(Cl)ccc1OCC(=O)n1cc(C(=O)c2cc(Cl)ccc2O)cn1 as the molecule, how does the ratio change, negative = inhibition read?
Its ratio change, negative = inhibition is inconclusive: 16.8% [at 46 µM].

Which ratio change, negative = inhibition does the source give for Cc1cc(C)c(NC(=O)Cn2c(=O)nc(-c3ccccc3)c3cc(Cl)ccc32)c(C)c1 here?
Its ratio change, negative = inhibition is inconclusive: -24.5% [at 46 µM].

For Cc1cccc2sc(N(CCCN(C)C)C(=O)CN3C(=O)c4ccccc4C3=O)nc12, which ratio change, negative = inhibition is on record?
Its ratio change, negative = inhibition is inconclusive: 16.4% [at 9.22 µM].

Which ratio change, negative = inhibition does the source give for CCc1ccc(-c2nn(CC(=O)Nc3ccccc3C)c3c2cnc2ccc(C)cc23)cc1 here?
The ratio change, negative = inhibition was “inactive”.

For Cc1ccc(C(=O)/C=C/c2ccc(-c3ccc(C)cc3)o2)cc1, which ratio change, negative = inhibition is on record?
The ratio change, negative = inhibition was inconclusive: -32.8%.

With O=C(C[n+]1cn(C(F)F)c2ccccc21)c1ccc(Br)cc1 as the molecule, how does the Potency read?
The Potency was inconclusive: 35.5 µM [rising, partial curve, poor fit].

With COc1ccc(CC(=O)N2CCOCC2)cc1 as the molecule, how does the ratio change, negative = inhibition read?
The ratio change, negative = inhibition was “inactive”.

Which ratio change, negative = inhibition does the source give for CCc1ccccc1NC(=O)C1CCN(C(=O)N2CC(C)Oc3ccc(Cl)cc32)CC1 (stereo not drawn) here?
Its ratio change, negative = inhibition is “inactive”.

Which ratio change, negative = inhibition does the source give for CC(C)COC(=O)c1ccc(N)cc1 here?
The ratio change, negative = inhibition was inconclusive: 1.09%.

Which ratio change, negative = inhibition does the source give for CC(=O)Nc1ccc(NC(=S)NC(=O)/C=C/c2ccc(Cl)cc2)cc1 here?
The ratio change, negative = inhibition was inconclusive: -28.2% [at 46 µM].

For CCNc1ccc(Br)cc(C(=O)/C=C/c2ccc3c(c2)OCO3)c1=O, which Potency is on record?
Its Potency is inconclusive: 35.5 µM [cytotoxic, single point].

Which ratio change, negative = inhibition does the source give for O=C(Cc1cc(=O)[nH][nH]1)N/N=C/C=C/c1ccccc1 here?
The ratio change, negative = inhibition was inconclusive: 1.53%.

With O=C1CCC(c2ccccc2)=NN1Cc1c(F)cccc1Cl as the molecule, how does the ratio change, negative = inhibition read?
Its ratio change, negative = inhibition is inconclusive: -25.6% [at 46 µM].

For O=C(Nc1ccc(Cl)c(S(=O)(=O)N2CCOCC2)c1)c1cc(-c2ccccn2)nc2ccccc12, which ratio change, negative = inhibition is on record?
Its ratio change, negative = inhibition is inconclusive: -30.1% [at 46 µM].

For Cc1ccc(-c2[nH]c3ccccc3c2SCCNC(=O)c2ccc(S(=O)(=O)N3CCOCC3)cc2)cc1, which Potency is on record?
Its Potency is inconclusive: 11.2 µM [fluorescent, partial curve].

For O=C(O)C1Cc2ccccc2CN1C(=O)CSc1nnc2ccccn12 (stereo not drawn), which ratio change, negative = inhibition is on record?
The ratio change, negative = inhibition was inactive: 2.49% [at 9.22 µM].

With Cc1ccc(NC(=O)CS(=O)CC(=O)Nc2ccc3c(c2)OCO3)cc1Cl (stereo not drawn) as the molecule, how does the ratio change, negative = inhibition read?
The ratio change, negative = inhibition was inconclusive: -6.94%.

With CCNc1ncc2nc(-c3ccc(Cl)cc3)c(=O)n(C[C@H]3CCCO3)c2n1 as the molecule, how does the ratio change, negative = inhibition read?
The ratio change, negative = inhibition was “inactive”.

For CCN1CCN(Cc2nc3cc(NC(=O)c4ccccc4[N+](=O)[O-])ccc3n2CC)CC1, which ratio change, negative = inhibition is on record?
Its ratio change, negative = inhibition is inconclusive: -0.169% [at 46 µM].

For Cc1nn(Cc2ccc(F)cc2)c(Cl)c1/C=N/NC(=O)c1ccccc1, which ratio change, negative = inhibition is on record?
The ratio change, negative = inhibition was inconclusive: 10% [at 46 µM].

For c1ccc(CSc2nnc(-c3cccnc3)o2)cc1, which ratio change, negative = inhibition is on record?
The ratio change, negative = inhibition was “inactive”.

With CC(=O)Nc1cccc(-c2csc(Nc3ncccn3)n2)c1 as the molecule, how does the ratio change, negative = inhibition read?
The ratio change, negative = inhibition was “inactive”.

For CN(C)S(=O)(=O)c1ccc2c(c1)N(CC(=O)N1CCCCC1)CCS2, which ratio change, negative = inhibition is on record?
Its ratio change, negative = inhibition is inconclusive: -14.7% [at 46 µM].

With O=C(CCc1nc(-c2ccccc2)no1)NCc1ccco1 as the molecule, how does the ratio change, negative = inhibition read?
Its ratio change, negative = inhibition is inconclusive: 32.4%.

Which ratio change, negative = inhibition does the source give for O=C(CCc1ccccc1)OCCN1CCOCC1 here?
The ratio change, negative = inhibition was inconclusive: 8.43%.

Which ratio change, negative = inhibition does the source give for NC(=O)c1nsc(C(=O)N(CC(=O)NCc2ccc3c(c2)OCO3)C2CCCC2)c1N here?
Its ratio change, negative = inhibition is inconclusive: 8.56%.

With CC1(C)Cc2c(C#N)c(SCCC#N)nc(N3CCOCC3)c2CS1 as the molecule, how does the ratio change, negative = inhibition read?
The ratio change, negative = inhibition was “inactive”.

Which ratio change, negative = inhibition does the source give for Cc1cccc(Nc2ccccc2C(=O)OCC(=O)N(C)C2CCS(=O)(=O)C2)c1C (stereo not drawn) here?
Its ratio change, negative = inhibition is inconclusive: 36%.

Which ratio change, negative = inhibition does the source give for OCCNc1nc(N2CCCC2)nc(N2CCCC2)n1 here?
Its ratio change, negative = inhibition is “inactive”.

Which Potency does the source give for CCOc1ccc(S(=O)(=O)NCc2ccccc2)cc1C(N)=O here?
Its Potency is inconclusive: 35.5 µM [falling, partial curve, poor fit].

For COC(=O)c1c(N2C(=O)CCC2=O)sc2c1CCCC2, which ratio change, negative = inhibition is on record?
The ratio change, negative = inhibition was “inactive”.

For N#C/C(=C\c1ccc(Sc2nc3ccccc3[nH]2)o1)c1ccccc1, which ratio change, negative = inhibition is on record?
The ratio change, negative = inhibition was inconclusive: -31.3%.

Which ratio change, negative = inhibition does the source give for CCOC(=O)CN1CC23C=CC(O2)C(C(=O)Nc2ccc(OC)cc2OC)C3C1=O (stereo not drawn) here?
Its ratio change, negative = inhibition is inconclusive: -7.71%.

Which Potency does the source give for COc1ccc2c(c1)SCC(=O)N2C here?
Its Potency is inconclusive: 35.5 µM [falling, single point].

For CCOC(=O)c1c(C)oc2c1c(CN1CCN(C(=O)OCC)CC1)c(O)c1ccccc12, which ratio change, negative = inhibition is on record?
The ratio change, negative = inhibition was inconclusive: 6.51%.

For Cc1cccc(NCc2nnc3n2CCCCC3)c1C, which ratio change, negative = inhibition is on record?
The ratio change, negative = inhibition was inconclusive: -2.27% [at 46 µM].

For Cc1ccccc1C(=O)NCC(c1cccnc1)N1CCc2ccccc21 (stereo not drawn), which ratio change, negative = inhibition is on record?
Its ratio change, negative = inhibition is inconclusive: -8.27% [at 46 µM].

With NC(=O)COc1ccc(NC(=O)c2ccccc2-c2ccccc2)cc1 as the molecule, how does the ratio change, negative = inhibition read?
The ratio change, negative = inhibition was inconclusive: 17.8% [at 46 µM].

Which Potency does the source give for COCCn1c(-c2ccc(Cl)cc2)cnc1SCC(=O)NCCc1ccc(OC)c(OC)c1 here?
The Potency was inconclusive: 35.5 µM [fluorescent, single point].

Which Potency does the source give for Cc1ccc(C(=O)NC2(C(F)(F)F)NC(=O)N(c3ccc(Cl)cc3)C2=O)cc1 (stereo not drawn) here?
Its Potency is inconclusive: 15.8 µM [fluorescent, single point].

For Cc1ccc(Cl)cc1N1CCN(CCCNc2ncnc3onc(-c4ccc(F)cc4)c23)CC1, which ratio change, negative = inhibition is on record?
The ratio change, negative = inhibition was inconclusive: -16.4% [at 46 µM].
